This assay in a line: qHTS Assay for Lipid Storage Modulators in Drosophila S3 Cells.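 On cell number change: cells counted by Cell Tracker Red CMTPX staining in the red channel.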 The note with it: BODIPY lipid droplet fluorescence, 18-24 h; for cell number change: measured here: cell count max response, cells fed with added oleic acid. In a few lines: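 Drosophila S3 cells got compounds at several concentrations plus oleic acid (400 uM solution). Laser-scanning cytometry with 488 nm excitation read lipid droplets at 500-530 nm and cells at 575-640 nm. Percent activity was relative to 20 uM Triacsin C.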

The mark [1] stands for this setting: measured here: cell number channel AC50, cells fed with added oleic acid.
Setting [2] is: measured here: lipid fluorescence (Fed channel) AC50, cells fed with added oleic acid.

Structures are written as SMILES. This is one part of the list. These are further read-outs of the screen, such as a control signal, another cell line or another target. No call is given for them. The list favours compounds with an active or inconclusive main result. Potencies come from curve fits of mixed quality, noted in brackets.

Take `Nc1c(-c2cccc(Cl)c2)cnn1-c1cccc([N+](=O)[O-])c1`: the cell number change was 19.5%. For the same compound, under setting [1], the AC50 (as a rule, the concentration at which the activity in the assay is half-maximal) was 5.8 µM [rising, partial curve, poor fit].
In the case of `COc1ccc(NC(=O)CCCn2nc(C)c3c(C)n(-c4ccccc4)nc3c2=O)cc1`, the cell number change was -23.4%. Also, under setting [2], the AC50 is 1.84 µM [rising, partial curve, poor fit].
For `O=C(CN1CC(=O)Oc2ccccc21)OCC(=O)c1ccc(F)cc1`, the cell number change was -64.6%. Besides, the concentration at half-maximal activity (AC50) under setting [1] is 20.6 µM [falling, single point].
Regarding `O=C(NC1CCCC1)C(c1ccco1)N(C(=O)c1ccco1)c1ccccc1` (stereo not drawn), the cell number change was -8.97%. Moreover, under setting [2], the AC50 was 29.1 µM [rising, single point].
`CC(=O)Nc1ccccc1OCC(=O)NC(C)c1ccccc1` (stereo not drawn): the cell number change was -3.21%. For the same compound, the AC50 under setting [2] was 0.13 µM [falling, full curve, poor fit].
Regarding `CC1CC(=O)Nc2ccccc2N1C(=O)Nc1ccc(F)cc1F` (stereo not drawn), the cell number change is -7.79%. Besides, under setting [2], the AC50 is 2.59 µM [falling, full curve, poor fit].
With `CN(C)Cc1ccccc1Sc1ccc(Br)cc1`, the cell number change was -16.5%. Moreover, the concentration at half-maximal activity (AC50) under setting [2] is 0.013 µM [falling, full curve].
On to `C=CCc1ccc(OCC(O)COc2ccc(CC=C)cc2OC)c(OC)c1`, for which the cell number change was -36.8%. Further, under setting [1], the AC50 was 1.46 µM [falling, partial curve, poor fit]. Under setting [2], the AC50 is 14.6 µM [falling, partial curve].
Consider `Cc1ccccc1OCC(=O)NC1=NCCS1`, for which the cell number change is 62.1%. The AC50 under setting [1] was 29.1 µM [rising, single point].
Regarding `COc1cccc(-c2c(C(=O)N/N=C(\C)c3ccco3)nnn2-c2nonc2N)c1`, the cell number change amounted to 25.4%.
Consider `COc1ccc(-c2[nH]ncc2CN(C)C(C)c2ccon2)c(OC)c1` (stereo not drawn), for which the cell number change stood at 26.2%. The concentration at half-maximal activity (AC50) under setting [2] was 3.66 µM [rising, partial curve, poor fit].
Take `Cc1cc(C)cc(-c2nc(-c3ccncc3)no2)c1`: the cell number change was determined as 56.5%. Further, the AC50 under setting [1] was 2.59 µM [rising, full curve]. The half-maximal activity concentration (AC50) under setting [2] was 2.91 µM [rising, full curve].
Consider `CCOc1nc(NC(=O)NS(=O)(=O)c2cccc(Cl)c2)nc(-c2ccccc2)n1`, for which the cell number change came out at 21.9%. Also, under setting [2], the AC50 was 1.03 µM [rising, partial curve].
Regarding `Cc1cccc(NC2(C(F)(F)F)N=C(c3ccccc3)NC2=O)n1` (stereo not drawn), the cell number change was -3.19%. The AC50 under setting [2] is 14.6 µM [falling, single point].
Turning to `Cc1ccc(S(=O)(=O)N2CCOCC2)cc1NC(=O)COc1ncnc2ccccc12`, the AC50 under setting [1] is 0.517 µM [rising, partial curve, poor fit] and the AC50 under setting [2] is 3.66 µM [falling, full curve, poor fit].
For `COc1ccc(-c2nc(CNS(=O)(=O)c3cc(OC)ccc3OC)cs2)cc1`, the cell number change was 170%. Under setting [2], the AC50 is 9.2 µM [rising, partial curve].
On to `Cc1ccc(S(=O)(=O)N(CC(=O)NCc2ccccc2Cl)C(=O)N2CCN(C)CC2)cc1`, for which the cell number change is -50%. Also, the AC50 under setting [1] was 0.082 µM [falling, full curve, poor fit].
`CCCN1Cc2cccc(C(=O)Nc3ccc(CN4CCCC4)cc3)c2C1=O`: the cell number change amounted to 17.4%. Moreover, the concentration at half-maximal activity (AC50) under setting [2] was 2.31 µM [rising, partial curve, poor fit].
With `NNc1nc(Nc2ccccc2)nc(N2CCCCC2)n1`, the cell number change amounted to 24.2%. Further, the AC50 under setting [2] is 18.4 µM [rising, single point].
Regarding `CCOC(=O)c1c(O)c2cccc3c2n(c1=O)CC3`, the cell number change is -2.88%. Moreover, under setting [1], the AC50 is 1.16 µM [falling, full curve, poor fit]. The AC50 under setting [2] was 6.51 µM [falling, single point].
With `COCc1cc(S(=O)c2ccc(Cl)cc2)nc(C)n1` (stereo not drawn), the cell number change amounted to 2.76%. Moreover, under setting [1], the AC50 is 4.61 µM [falling, single point].
In the case of `Cc1ccc(N(CC(=O)NCc2ccccc2)C(=O)c2csnn2)c(C)c1`, the cell number change came to 1.71%. Moreover, the AC50 under setting [2] was 29.1 µM [rising, single point].
`Cc1cc(C(=O)CSc2nnc(N)s2)c(C)n1-c1c(C)n(C)n(-c2ccccc2)c1=O`: the cell number change amounted to 62.8%. Besides, under setting [1], the AC50 was 32.6 µM [rising, single point]. In addition, under setting [2], the AC50 was 0.411 µM [falling, full curve].
For `CCOc1ccc(N2C(=O)CC(Sc3nnnn3-c3ccccc3)C2=O)cc1` (stereo not drawn), the cell number change is -30.1%. For the same compound, the half-maximal activity concentration (AC50) under setting [1] was 0.231 µM [falling, full curve, poor fit]. Moreover, the AC50 under setting [2] is 0.651 µM [falling, full curve].
As to `CNc1nc(NC)nc(-n2c(C(F)(F)F)nc3ccccc32)n1`, the cell number change amounted to 22.8%. The AC50 under setting [1] is 0.731 µM [rising, full curve, poor fit]. The concentration at half-maximal activity (AC50) under setting [2] was 1.16 µM [rising, single point].
`CCN1CCN(c2ccc(S(=O)(=O)N3CCOCC3)cc2NC(=O)c2ccc(C)cc2C)CC1`: the cell number change came out at 1.25%. Under setting [2], the AC50 was 20.6 µM [rising, partial curve].
Regarding `O=C(O)c1ccc(N/N=C/C=C/c2ccccc2[N+](=O)[O-])cc1`, the cell number change was -22.9%.
For the compound `CC(NC(=O)c1ccccc1F)c1nnc(SCC(=O)Nc2nnc(C3CC3)s2)n1C` (stereo not drawn), the cell number change is -17.1%. Further, the AC50 under setting [2] is 0.326 µM [falling, full curve, poor fit].
On to `COc1ccc(S(=O)(=O)N2CCCCCC2)cc1C(=O)N(CC(C)C)C1CCS(=O)(=O)C1` (stereo not drawn), for which the cell number change was -2.33%. For the same compound, the AC50 under setting [2] is 32.6 µM [rising, single point].
On to `COc1ccc(C(=O)NC2CCN(CC(=O)Nc3c(C)cccc3C)CC2)cc1OC`, for which the cell number change is 11.1%. Also, the AC50 under setting [2] is 29.1 µM [rising, single point].
Consider `Brc1c(CSc2nnc(-c3ccco3)o2)nc2ccccn12`, for which the cell number change was 49.8%. The AC50 under setting [1] was 29.1 µM [rising, single point]. Also, under setting [2], the AC50 is 29.1 µM [rising, single point].
In the case of `O=C(CC(NS(=O)(=O)c1ccc(Cl)cc1)c1ccco1)NCc1ccco1` (stereo not drawn), the cell number change came out at 0.251%.
Take `O=C(O)c1ccc(NCc2nc3ccccc3n2Cc2ccccc2)cc1`: the cell number change worked out at 13.2%. For the same compound, under setting [2], the AC50 is 5.17 µM [rising, full curve, poor fit].
For `Cc1ccc(NC2=CC(=O)C(=O)c3ccccc32)c(C)c1`, the cell number change was 12.8%. Further, the AC50 under setting [1] is 1.64 µM [falling, partial curve].
As to `COc1cccc(CNC(=O)CCC2CCCN(C(=O)c3ccc(OC)c(F)c3)C2)c1` (stereo not drawn), the cell number change was -35.2%. For the same compound, the AC50 under setting [1] was 8.2 µM [falling, partial curve]. Moreover, under setting [2], the AC50 was 6.51 µM [falling, partial curve].
For `Cc1cccc(N(Cc2ccccc2)C(=O)c2cccc(S(=O)(=O)N3CC(C)OC(C)C3)c2)c1` (stereo not drawn), the cell number change was found to be 25%. For the same compound, under setting [2], the AC50 was 23.1 µM [falling, partial curve].
`c1ccc(Nc2scc(-c3ccccc3)[n+]2Cc2ccco2)cc1`: the cell number change is 52%.
As for `O=C(NCc1ccc2c(c1)OCO2)C1CC(=O)N(c2ccc(Cl)cc2)C1` (stereo not drawn), the cell number change stood at 8.26%. Moreover, under setting [2], the AC50 is 6.51 µM [falling, single point].
Regarding `CCCC[n+]1ccn(-c2nc3c([N+](=O)[O-])cccc3n2C)c1`, the cell number change came out at 25.6%.
As for `CC(NC(=O)c1cc2c(=O)n3ccccc3nc2n(CC2CCCO2)c1=N)c1ccccc1` (stereo not drawn), the cell number change was 23.8%. In addition, the AC50 under setting [2] was 29.1 µM [rising, partial curve].
With `Cn1c(SCC(=O)N2CCOCC2)nc(O)cc1=O`, the cell number change is -57.4%. Moreover, the AC50 under setting [1] is 29.1 µM [falling, single point]. Moreover, the AC50 under setting [2] is 29.1 µM [falling, single point].
For `Cc1ccnc(NS(=O)(=O)c2ccc(NS(=O)(=O)Cc3ccccc3)cc2)n1`, the cell number change is -43%. Besides, under setting [1], the AC50 is 29.1 µM [falling, single point]. Under setting [2], the AC50 is 0.092 µM [falling, full curve, poor fit].
In the case of `Cc1n[nH]c(C)c1N1C(=O)c2cccc3c(N4CCCCCC4)ccc(c23)C1=O`, the cell number change is -104%. The AC50 under setting [1] was 2.59 µM [falling, full curve]. Also, the AC50 under setting [2] was 6.51 µM [falling, partial curve].
As to `Cc1ccc2[nH]c3c(c2c1)CN(C(=O)CN1CCN(C(=O)c2ccco2)CC1)CC3`, the cell number change is -43.3%. For the same compound, the half-maximal activity concentration (AC50) under setting [1] is 29.1 µM [falling, single point].
In the case of `CCOc1ccccc1/C=C(/NC(=O)c1ccccc1)C(=O)NC(C)c1ccccc1` (stereo not drawn), the cell number change was -20.2%. Also, under setting [1], the AC50 is 0.731 µM [rising, single point].
`CCN1C(=O)CC(C(=O)Nc2ccc(F)cc2)SC1=Nc1ccc2c(c1)OCO2` (stereo not drawn): the AC50 is 0.82 µM [rising, full curve] under setting [1] and 1.84 µM [rising, full curve] under setting [2].
Turning to `Cn1c(SCC(=O)Nc2ccc3c(c2)oc2ccccc23)nnc1-c1ccccc1`, the cell number change is -82.3%. Also, the AC50 under setting [1] was 32.6 µM [falling, single point]. Further, the AC50 under setting [2] was 32.6 µM [falling, single point].
Take `CN(C)c1nc2n(c(=O)n1)CCO2`: the cell number change was found to be 4.13%.
As to `O=C(CSc1nc(=O)n(CCCN2CCOCC2)c2c1CCCC2)Nc1cccc(F)c1`, the cell number change was -10%.
Regarding `Cc1ccc(-c2nnn(CC(=O)N(c3cccc(O)c3)C(C(=O)NC(C)(C)C)c3cccs3)n2)o1` (stereo not drawn), the cell number change was -48.7%. For the same compound, under setting [1], the AC50 is 29.1 µM [falling, single point]. The AC50 under setting [2] was 20.6 µM [rising, single point].
On to `COc1cccc(/C=N/NC(=O)COc2cccc3cccnc23)c1O`, for which the cell number change is -29.7%. Under setting [1], the AC50 is 2.31 µM [rising, partial curve]. Further, the AC50 under setting [2] is 1.46 µM [rising, partial curve, poor fit].
On to `O=C(NC(=S)Nc1ccc(CN2CCOCC2)cc1)c1cc2ccccc2o1`, for which the cell number change came out at 16.8%. Moreover, the concentration at half-maximal activity (AC50) under setting [1] was 6.51 µM [rising, single point]. For the same compound, the AC50 under setting [2] was 1.16 µM [rising, partial curve].
`CC(C)NC(=O)C(=O)NCCc1ccc(Cl)cc1`: the cell number change was 47.5%. For the same compound, the concentration at half-maximal activity (AC50) under setting [2] was 3.66 µM [falling, single point].
In the case of `CC(C)CN(C(=O)CN(C)C(=O)c1ccco1)c1c(N)n(CC(C)C)c(=O)[nH]c1=O`, the cell number change was -39.5%. Under setting [1], the AC50 was 0.411 µM [falling, full curve].
As for `O=C(c1cccc(S(=O)(=O)Nc2ccc(F)cc2)c1)N1CCC1`, the cell number change was -9.07%. Besides, the AC50 under setting [2] is 18.4 µM [rising, partial curve, poor fit].
